Tested on: three-dimensional hepatic tissue consisting only of human hepatocytes (PXB cells)
Experiment: ATP assay (CellTiter Glo 3D) viability after exposure to hepatotoxicity-inducing compounds, Test Example 6 Condition 1
Assay type: cell-based
Conditions: Condition 1 (present tissue) versus Condition 2 (spheroid); IC50 half or less in Condition 1
Procedure: The resulting mixture was centrifuged at room temperature at 400×g for 2 minutes, the supernatant was removed, and the cells were resuspended in an HCM (product number “CC-3198”, manufactured by Lonza) containing 10 U/mL thrombin (product number “R4648”, manufactured by Sigma-Aldrich) and 1 v/v % endothelial cell growth supplement (ECGS) (product number “1052”, manufactured by Sciencell) to a cell density of 1.95×10^4 cells/2 μL to obtain a cell suspension.
2 μL of an HCM containing 5 mg/mL fibrinogen and 1 v/v % ECGS was added to a 48-well microplate (product number “3830-048”, manufactured by AGC Techno Glass) to form a droplet. The cell suspension was added to the interior of each droplet, and the 48-well microplate was then left to stand in an incubator for 40 minutes to form a fibrin gel in which the human hepatocytes were embedded. 0.5 mL of HCM containing 1 v/v % ECGS was added to each well in which the fibrin gel had been formed, and the cells were cultured under the conditions of 37° C. and 5% CO2. After the start of the culture, the medium was changed every two days.

Structure (SMILES) | Compounds with 2-fold or greater difference in IC50 value
CS(=O)(=O)CCNCc1ccc(-c2ccc3ncnc(Nc4ccc(OCc5cccc(F)c5)c(Cl)c4)c3c2)o1 [Lapatinib] | Yes
CS(=O)(=O)Nc1ccc([N+](=O)[O-])cc1Oc1ccccc1 [Nimesulide] | Yes

Reference: US20250368962A1, “THREE-DIMENSIONAL HEPATIC TISSUE AND METHOD OF MANUFACTURING THE SAME” (TOPPAN HOLDINGS INC., priority 2023, published 2025)
